These are raw signals, not scaled to a control.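 The top concentration was set near the MIC for antimicrobials, at 500 µM for most other compounds, and up to 1 mM for known inducer-like compounds. Deletion strains started from a tenfold smaller inoculum, and wells growing below 10% of the overall median were treated as non-growing.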
Test system: Escherichia coli BW25113
Assay: growth (OD600 area under curve, 8 h) (OD600 x h); higher = more growth
Protocol: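 E. coli BW25113 reporter strains (wild type, ΔmarA, ΔsoxS, Δrob, each carrying one of 8 lux reporter plasmids) were grown in 40 µl LB in 384-well plates at 37°C, 800 rpm, with each compound at 4 two-fold concentrations, in biological duplicates. Growth is the baseline-corrected OD600 area under the curve over 8 h (0-8 h WT, 1-9 h deletion strains).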

CO[C@H]1/C=C/O[C@@]2(C)Oc3c(C)c(O)c4c(O)c(c(/C=N/N5CCN(C)CC5)c(O)c4c3C2=O)NC(=O)/C(C)=C\C=C\[C@H](C)[C@H](O)[C@@H](C)[C@@H](O)[C@@H](C)[C@H](OC(C)=O)[C@@H]1C [Rifampicin]
growth
Settings	reporter plasmid: EVC	reporter plasmid: acrABp	reporter plasmid: marRABp	reporter plasmid: micFp	reporter plasmid: ompFp	reporter plasmid: robp	reporter plasmid: soxSp	reporter plasmid: tolCp
1 µg/ml, genetic background: wild type	3.19	2.98	3.27	3.15	3.2	3.26	3.04	3.16
1 µg/ml, genetic background: ΔmarA	3.24	4.18	3.7	3.21	3.55	3.92	2.85	2.93
1 µg/ml, genetic background: Δrob	3.04	2.78	3.26	2.95	2.77	2.64	2.99	3.08
1 µg/ml, genetic background: ΔsoxS	3.29	3.22	3.07	3.105	3.16	3.14	3.28	3.3
2.1 µg/ml, genetic background: wild type	3.17	2.53	2.772	2.98	2.757	2.754	2.96	3.07
2.1 µg/ml, genetic background: ΔmarA	2.844	3.8	3.53	3.07	3.13	3.4	2.78	2.566
2.1 µg/ml, genetic background: Δrob	3.11	2.32	2.78	2.93	2.3	2.15	2.81	2.93
2.1 µg/ml, genetic background: ΔsoxS	3.27	2.91	2.76	3.15	3.143	2.79	3.106	3.281
4.1 µg/ml, genetic background: wild type	2.66	2.07	2.37	2.74	2.5	2.337	2.78	2.82
4.1 µg/ml, genetic background: ΔmarA	2.56	3.24	2.79	2.28	2.5	2.92	2.37	2.15
4.1 µg/ml, genetic background: Δrob	2.65	2.19	2.54	2.24	1.36	0.981	2.4	2.63
4.1 µg/ml, genetic background: ΔsoxS	2.76	2.4	2.41	2.62	2.86	2.2	2.77	2.86
8.2 µg/ml, genetic background: wild type	0.729	0.143	0.261	0.602	0.164	0.254	0.892	0.816
8.2 µg/ml, genetic background: ΔmarA	0.0355	-0.0201	0.00915	0.0661	-0.0435	-0.0116	0.0126	0.0211
8.2 µg/ml, genetic background: Δrob	0.0297	-0.12	0.02	0.0142	-0.0564	0.00141	0.141	0.268
8.2 µg/ml, genetic background: ΔsoxS	0.246	0.00943	-0.0279	0.0577	0.0223	-0.00222	0.0544	0.251
